Patent publication US6887844 (dated 2005)
No constants are given. Whether binding was seen depends on the method and setting. Some binding calls cover weakened binding; strength is not graded here.

Sequences of proteins named here, by UniProt entry; tags and fusion partners are left off. A change or cut given only in a name is not applied to a line headed by its entry. Residues count along the entry.
UniProt P13596, residues 20-208: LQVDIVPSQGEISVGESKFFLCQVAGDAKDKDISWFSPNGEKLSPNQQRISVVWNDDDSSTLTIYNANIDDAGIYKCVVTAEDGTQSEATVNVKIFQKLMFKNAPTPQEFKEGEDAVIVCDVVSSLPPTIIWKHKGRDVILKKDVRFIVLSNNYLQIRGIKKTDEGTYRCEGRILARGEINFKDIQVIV

Molecular target: NCAM(20-208), unmutated double Ig domain (Ig1-Ig2) (UniProt P13596)
Experiment: gel filtration chromatography, self-association

binding: binds
Substance: NCAM(20-208), unmutated double Ig domain (Ig1-Ig2) (from UniProt P13596 20-208) (receptor)
